Data reported in patent US20070105788A1, “Azithromycin for treatment of granulomatous rosacea” (priority 2005, published 2007).
At least one compound was matched to its structure with a doubt left.

System: granulomatous rosacea
Test: Case reports: treatment of patients with granulomatous rosacea
Type: in vivo, human
Method: A patient presented with severe inflammatory diffuse facial granulomatous rosacea. The condition had been present for 6 years.
They were started on oral azithromycin 500 mg daily dose together with an estrogenic hormone, norgestimate/ethinyl estradiol (ORTHO TRI-CYCLEN®, Ortho-McNeil Pharmaceutical, Raritan, N.J.). […] Treatment was continued with a follow-up examination expected in another 6 to 8 weeks.
A patient presented with complaints of a “facial rash”. […] They were started on oral cephalexin. […] Treatment with dicloxicillin was initiated.
Oral azithromycin at a dosage of 500 mg daily was started, together with daily topical application of a sodium sulfacetamide 10% with sulfur 5% cream and a metronidazole cream.
A person presented with a facial rash.
Treatment was initiated with a variety of topical medications, including metronidazole gel, Elidel® (pimecrolimus, Novartis Pharmaceuticals Corp., New York, N.Y.), 2.4% hydrocortisone, and desonide cream.
The next therapy tried was oral doxycycline 100 mg twice daily. […] The patient was then started on Accutane® (Hoffman-LaRoche Inc., Nutley, N.J.) at an initial dosage of 20 mg per day, which was subsequently raised to 40 mg per day and then to 60 mg per day.
Treatment was subsequently initiated with azithromycin as the sole therapy, administered orally at a dosage of 250 mg daily for three weeks.

Compound	clinical response of granulomatous rosacea (Example 3, oral tetracycline 500 mg twice daily)	clinical response of granulomatous rosacea (Example 1, patient, prior treatment with doxycycline)	clinical response of granulomatous rosacea (Example 3, oral doxycycline 100 mg twice daily)
CN(C)[C@@H]1C(O)=C(C(N)=O)C(=O)[C@@]2(O)C(O)=C3C(=O)c4c(O)cccc4[C@@](C)(O)[C@H]3C[C@@H]12 [tetracycline]	not responsive		
C[C@H]1c2cccc(O)c2C(=O)C2=C(O)[C@]3(O)C(=O)C(C(N)=O)=C(O)[C@@H](N(C)C)[C@@H]3[C@@H](O)[C@@H]21 [doxycycline]		no improvement	unsuccessful
